# PubChem BioAssay AID1259254 – NCATS, 2017
# Screen: 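Genome-wide screen for genes that prevent DNA re-replication in cancer cells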 (primary screen)
# Cell system: human HCT116 colorectal cancer cells
# Reagents: single siRNA against human genes
# Time to read-out: 3 days
# Measured: 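Nuclei stained with Hoechst and imaged; cell-cycle phase assigned by DNA content; G2 share scaled per plate, non-targeting siRNA 0%, GMNN siRNA 100%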
# Scale: G2 robust z-score and G2 cells, % of GMNN control: higher = more G2 cells, more excess DNA replication
# Hit rule: 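An siRNA counts as active if its G2 robust z-score lies at least 5 MADs above the screen median; here such calls match roughly 38% of GMNN control or more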
# The deposit covers about 59,000 reagents; below is a random part of them. About 1,550 of all reagents (2.6%) were called active. 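G2 share is only a proxy for re-replication; each gene was hit by three separate siRNAs, and active genes were retested.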 Unmarked entries are inactive. Reagents against one gene are numbered here. Not all columns of the deposit are shown. Not given: the amount of reagent.
Target gene,reagent,G2 robust z-score,"G2 cells, % of GMNN control"
KIR3DL3,1,1.51,13.6
KIR3DL3,2,0.179,4.22
KIR3DL3,3,1.96,16.8
TBX2,1,-0.478,-0.395
TBX2,2,-1.13,-5.01
TBX2,3,5.67 (active),42.8
REL,1,2.52,20.7
REL,2,0.124,3.84
REL,3,-0.699,-1.95
ULK4,1,0.117,3.79
ULK4,2,-1,-4.1
ULK4,3,0.301,5.09
NTM,1,3.28,26
NTM,2,-1.03,-4.29
NTM,3,2.41,19.9
CASD1,1,3.14,25
CASD1,2,-0.322,0.699
CASD1,3,-1.05,-4.42
SYPL1,1,1.99,17
SYPL1,2,-0.997,-4.05
SYPL1,3,0.304,5.11
PSMG3,1,-0.25,1.21
PSMG3,2,-0.691,-1.89
PSMG3,3,-0.785,-2.55
TLCD2,1,-0.105,2.23
TLCD2,2,-0.71,-2.03
TLCD2,3,-0.799,-2.66
BTBD7,1,0.161,4.1
BTBD7,2,3.15,25.1
BTBD7,3,-0.463,-0.288

Reagents listed so far with an active call:
Target gene,reagent,G2 robust z-score,"G2 cells, % of GMNN control"
TBX2,3,5.67 (active),42.8
